For at least one entry, the source does not settle the construct or the ends of the probe. For some assays here: No signal at the amounts used counts as a negative. At least one verdict rests on a figure or table, not on a statement of the authors.
Key:
PPARγ + RXRα [1] = test: competition with a labelled probe; details: 200-fold unlabeled, vs labeled consensus PPRE; 4 fmol labeled DNA, 3.7 pmol PPARγ, 3.9 pmol RXRα in 20 µl; 20 ng poly(dI.dC), 2.5% glycerol, 0.05% NP-40, 5 mM MgCl2; on ice 20 min; 4% native gel, 1x TBE, 4 °C; recombinant protein; label: 3' biotin (unlabeled as competitor)
PPARγ + RXRα [2] = test: EMSA; details: labeled mutant probe; 4 fmol labeled DNA, 3.7 pmol PPARγ, 3.9 pmol RXRα in 20 µl; 20 ng poly(dI.dC), 2.5% glycerol, 0.05% NP-40, 5 mM MgCl2; on ice 20 min; 4% native gel, 1x TBE, 4 °C; recombinant protein; label: 3' biotin (unlabeled as competitor)

Row | Sequence | binding result (PPARγ + RXRα [1]) | binding result (PPARγ + RXRα [2])
1 | CAAAACTAGGTCAAAGGTCA (double strand) [consensus PPRE] | binds | –
2 | CAAAACTAGCACAAAGCACA (double strand) [consensus PPREmt] | – | no binding
